Measured values as given in publication PMC9892010.
No constants are given. Whether binding was seen depends on the method and setting. Some results given as binding are weak or reduced against the parent protein; the word gives no strength. Blank lines part the entries; values can stand above or below the binder they belong to.

Sequences of proteins named here, by UniProt entry; tags and fusion partners are left off. A change or cut given only in a name is not applied to a line headed by its entry.
UniProt Q00711: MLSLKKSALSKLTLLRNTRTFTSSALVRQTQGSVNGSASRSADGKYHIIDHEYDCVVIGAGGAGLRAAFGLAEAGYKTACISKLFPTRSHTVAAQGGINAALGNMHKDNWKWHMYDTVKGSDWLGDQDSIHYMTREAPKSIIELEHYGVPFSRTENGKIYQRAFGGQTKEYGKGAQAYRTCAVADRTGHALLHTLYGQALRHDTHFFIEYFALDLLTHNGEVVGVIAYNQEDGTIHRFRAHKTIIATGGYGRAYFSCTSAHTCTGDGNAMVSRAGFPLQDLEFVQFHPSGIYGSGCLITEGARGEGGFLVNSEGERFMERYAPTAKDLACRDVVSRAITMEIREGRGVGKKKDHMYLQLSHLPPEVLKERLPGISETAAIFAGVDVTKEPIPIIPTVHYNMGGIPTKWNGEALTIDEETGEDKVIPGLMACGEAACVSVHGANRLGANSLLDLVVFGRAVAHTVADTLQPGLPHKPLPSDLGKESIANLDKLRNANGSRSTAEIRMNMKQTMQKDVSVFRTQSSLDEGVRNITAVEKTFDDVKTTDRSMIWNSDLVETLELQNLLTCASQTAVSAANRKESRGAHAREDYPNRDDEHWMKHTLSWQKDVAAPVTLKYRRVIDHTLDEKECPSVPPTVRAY
UniProt P21801: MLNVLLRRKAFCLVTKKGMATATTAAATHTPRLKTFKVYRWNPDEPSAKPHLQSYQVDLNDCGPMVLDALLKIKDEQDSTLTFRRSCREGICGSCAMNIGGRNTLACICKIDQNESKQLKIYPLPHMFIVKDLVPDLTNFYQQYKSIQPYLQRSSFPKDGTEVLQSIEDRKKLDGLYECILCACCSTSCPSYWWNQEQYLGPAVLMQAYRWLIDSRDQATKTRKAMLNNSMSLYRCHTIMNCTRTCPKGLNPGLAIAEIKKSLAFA
UniProt P37298: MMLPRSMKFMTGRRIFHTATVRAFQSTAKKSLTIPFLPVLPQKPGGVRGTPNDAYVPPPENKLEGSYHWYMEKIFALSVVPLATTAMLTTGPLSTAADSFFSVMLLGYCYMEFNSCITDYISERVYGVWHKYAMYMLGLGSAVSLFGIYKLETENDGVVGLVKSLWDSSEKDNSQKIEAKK

How the values were obtained:
Assay in all cases: native gel or EMSA; complexome profiling (csBN–MS): yeast mitochondria lysed with 1% digitonin (protein:digitonin 1:8), blue native gradient gel 2–13%, cryo-sliced into 245 slices, quantitative MS; co-migration of abundance–mass profiles
[1] = target: T1, SAM_(core) complex (S. cerevisiae (endogenous in yeast)) (UniProt P53969+P50110+P14693)
T1 sequence 1: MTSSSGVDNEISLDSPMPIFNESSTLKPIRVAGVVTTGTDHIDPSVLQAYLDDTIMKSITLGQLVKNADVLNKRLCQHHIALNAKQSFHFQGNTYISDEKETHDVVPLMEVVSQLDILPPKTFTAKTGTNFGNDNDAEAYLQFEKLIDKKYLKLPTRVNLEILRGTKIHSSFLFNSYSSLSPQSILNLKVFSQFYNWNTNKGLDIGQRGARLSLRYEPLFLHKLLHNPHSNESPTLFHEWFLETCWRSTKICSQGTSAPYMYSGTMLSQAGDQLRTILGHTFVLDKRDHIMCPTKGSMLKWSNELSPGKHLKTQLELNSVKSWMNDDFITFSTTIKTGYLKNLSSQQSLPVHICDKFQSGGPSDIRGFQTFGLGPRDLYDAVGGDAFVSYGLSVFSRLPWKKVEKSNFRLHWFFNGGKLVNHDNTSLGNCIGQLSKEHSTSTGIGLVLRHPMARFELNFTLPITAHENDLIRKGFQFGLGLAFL
T1 sequence 2: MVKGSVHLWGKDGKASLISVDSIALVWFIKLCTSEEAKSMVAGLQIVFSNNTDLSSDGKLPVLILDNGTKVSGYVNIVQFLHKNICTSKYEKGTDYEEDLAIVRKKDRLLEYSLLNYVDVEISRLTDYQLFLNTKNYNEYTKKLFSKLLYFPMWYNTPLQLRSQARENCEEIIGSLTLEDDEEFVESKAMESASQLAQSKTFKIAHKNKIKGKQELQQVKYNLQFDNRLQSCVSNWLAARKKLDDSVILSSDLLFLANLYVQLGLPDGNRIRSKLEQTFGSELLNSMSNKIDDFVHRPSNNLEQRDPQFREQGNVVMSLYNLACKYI
T1 sequence 3: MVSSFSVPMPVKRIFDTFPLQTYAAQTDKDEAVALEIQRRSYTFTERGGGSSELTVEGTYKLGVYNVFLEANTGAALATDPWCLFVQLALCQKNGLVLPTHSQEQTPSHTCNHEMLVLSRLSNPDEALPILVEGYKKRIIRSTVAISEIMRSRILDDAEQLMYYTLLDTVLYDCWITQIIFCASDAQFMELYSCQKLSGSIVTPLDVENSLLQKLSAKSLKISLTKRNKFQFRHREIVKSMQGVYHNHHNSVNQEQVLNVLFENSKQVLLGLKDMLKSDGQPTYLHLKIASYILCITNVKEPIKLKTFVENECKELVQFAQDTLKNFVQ

[2] = target: T2, Tim10 (S. cerevisiae (endogenous in yeast)) (UniProt P87108)
T2 sequence: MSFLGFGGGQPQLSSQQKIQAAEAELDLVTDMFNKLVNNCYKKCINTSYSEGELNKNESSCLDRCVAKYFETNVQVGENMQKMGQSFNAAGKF

[3] = target: succinate dehydrogenase (SDH, respiratory complex II) (S. cerevisiae (endogenous in yeast)) (UniProt Q00711+P21801+P37298)

binding [1]: binds
B1: Mdm10 (protein, UniProt P18409 1-493)
chain: MLPYMDQVLRAFYQSTHWSTQNSYEDITATSRTLLDFRIPSAIHLQISNKSTPNTFNSLDFSTRSRINGSLSYLYSDAQQLEKFMRNSTDIPLQDATETYRQLQPNLNFSVSSANTLSSDNTTVDNDKKLLHDSKFVKKSLYYGRMYYPSSDLEAMIIKRLSPQTQFMLKGVSSFKESLNVLTCYFQRDSHRNLQEWIFSTSDLLCGYRVLHNFLTTPSKFNTSLYNNSSLSLGAEFWLGLVSLSPGCSTTLRYYTHSTNTGRPLTLTLSWNPLFGHISSTYSAKTGTNSTFCAKYDFNLYSIESNLSFGCEFWQKKHHLLETNKNNNDKLEPISDELVDINPNSRATKLLHENVPDLNSAVNDIPSTLDIPVHKQKLLNDLTYAFSSSLRKIDEERSTIEKFDNKINSSIFTSVWKLSTSLRDKTLKLLWEGKWRGFLISAGTELVFTRGFQESLSDDEKNDNAISISATDTENGNIPVFPAKFGIQFQYST

binding [2]: binds
B2: Tim9 (protein, UniProt O74700 1-87)
chain: MDALNSKEQQEFQKVVEQKQMKDFMRLYSNLVERCFTDCVNDFTTSKLTNKEQTCIMKCSEKFLKHSERVGQRFQEQNAALGQGLGR

binding [3]: binds
B3: Sdh3 (protein, UniProt P33421 51-198)
chain: NVASEMNTKAAIAEEQILNKQRAKRPISPHLTIYQPQLTWYLSSLHRISLVLMGLGFYLFTILFGVSGLLGLGLTTEKVSNWYHQKFSKITEWSIKGSFAYLFAIHYGGAIRHLIWDTAKELTLKGVYRTGYALIGFTAVLGTYLLTL
